Assay results reported in publication PMC5688218.
These are yes or no findings as the source states them, for the method shown. Binding can be weak; no strength is given.

The chains behind the UniProt entries cited, without tags or fusion partners. Where a name states a change or a piece, a line headed by the entry shows the natural chain unless it says otherwise. Residues count along the entry.
UniProt Q96EQ9: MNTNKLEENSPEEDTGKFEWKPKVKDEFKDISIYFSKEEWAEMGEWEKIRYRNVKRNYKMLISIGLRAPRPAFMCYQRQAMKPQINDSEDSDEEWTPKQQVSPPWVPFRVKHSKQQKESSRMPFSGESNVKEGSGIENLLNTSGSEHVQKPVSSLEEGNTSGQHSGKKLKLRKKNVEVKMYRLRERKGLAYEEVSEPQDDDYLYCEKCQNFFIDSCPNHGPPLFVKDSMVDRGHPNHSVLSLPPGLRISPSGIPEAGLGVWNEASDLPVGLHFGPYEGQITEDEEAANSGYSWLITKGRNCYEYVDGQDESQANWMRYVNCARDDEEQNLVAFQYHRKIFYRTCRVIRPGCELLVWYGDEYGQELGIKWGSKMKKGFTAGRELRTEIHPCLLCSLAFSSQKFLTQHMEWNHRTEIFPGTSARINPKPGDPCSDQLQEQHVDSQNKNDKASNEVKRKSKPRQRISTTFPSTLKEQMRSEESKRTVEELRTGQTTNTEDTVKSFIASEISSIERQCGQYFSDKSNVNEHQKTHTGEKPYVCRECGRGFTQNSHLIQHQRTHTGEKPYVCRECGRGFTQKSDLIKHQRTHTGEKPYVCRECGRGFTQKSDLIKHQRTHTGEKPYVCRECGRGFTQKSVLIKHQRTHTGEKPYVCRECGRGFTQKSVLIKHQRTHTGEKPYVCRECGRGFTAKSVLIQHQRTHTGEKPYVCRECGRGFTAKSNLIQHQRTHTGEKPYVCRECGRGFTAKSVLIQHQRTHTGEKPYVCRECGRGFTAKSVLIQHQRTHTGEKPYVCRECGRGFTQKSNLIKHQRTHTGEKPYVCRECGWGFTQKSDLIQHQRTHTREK
UniProt Q9QWF0, residues 397-911: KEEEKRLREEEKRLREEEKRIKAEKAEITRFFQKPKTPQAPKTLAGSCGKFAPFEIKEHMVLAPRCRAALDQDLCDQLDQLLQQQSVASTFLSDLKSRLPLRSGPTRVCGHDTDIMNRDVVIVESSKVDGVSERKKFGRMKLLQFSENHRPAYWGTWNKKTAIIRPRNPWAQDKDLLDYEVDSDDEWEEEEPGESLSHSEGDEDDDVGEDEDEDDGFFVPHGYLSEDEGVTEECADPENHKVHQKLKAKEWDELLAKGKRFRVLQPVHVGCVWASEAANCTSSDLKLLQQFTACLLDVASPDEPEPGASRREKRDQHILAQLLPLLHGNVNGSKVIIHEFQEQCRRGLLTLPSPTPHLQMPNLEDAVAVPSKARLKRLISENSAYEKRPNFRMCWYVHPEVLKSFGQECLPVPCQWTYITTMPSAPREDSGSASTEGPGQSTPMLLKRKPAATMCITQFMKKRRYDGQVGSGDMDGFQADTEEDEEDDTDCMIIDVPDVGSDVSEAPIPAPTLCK
UniProt Q99L90: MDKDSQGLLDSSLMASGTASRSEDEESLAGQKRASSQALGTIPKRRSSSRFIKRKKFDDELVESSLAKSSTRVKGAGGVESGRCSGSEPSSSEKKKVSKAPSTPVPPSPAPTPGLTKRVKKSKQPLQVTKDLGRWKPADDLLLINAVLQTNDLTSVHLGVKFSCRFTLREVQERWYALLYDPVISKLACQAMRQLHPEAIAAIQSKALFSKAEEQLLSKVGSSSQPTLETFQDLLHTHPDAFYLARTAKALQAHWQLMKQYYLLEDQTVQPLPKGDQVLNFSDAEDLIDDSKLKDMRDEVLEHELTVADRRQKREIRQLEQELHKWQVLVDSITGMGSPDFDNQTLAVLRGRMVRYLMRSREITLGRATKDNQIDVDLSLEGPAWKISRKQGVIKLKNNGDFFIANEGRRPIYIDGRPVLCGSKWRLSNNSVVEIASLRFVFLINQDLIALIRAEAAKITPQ
UniProt Q9CQJ2, residues 42-290: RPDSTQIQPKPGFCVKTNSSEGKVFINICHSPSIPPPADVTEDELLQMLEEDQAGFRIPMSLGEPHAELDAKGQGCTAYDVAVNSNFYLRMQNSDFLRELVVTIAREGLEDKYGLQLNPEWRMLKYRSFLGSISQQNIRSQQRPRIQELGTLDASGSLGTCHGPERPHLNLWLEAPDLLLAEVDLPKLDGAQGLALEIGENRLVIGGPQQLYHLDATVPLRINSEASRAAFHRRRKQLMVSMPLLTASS

Biological target: KRAB domain of mouse PRDM9 (Gal4 BD-PRDM9 KRAB) (mouse) (UniProt Q96EQ9)
Assay: two-hybrid; Gal4 AD fusions (Y187) mated with Gal4 BD fusions (AH109); growth of diploids on −LWH and −LWHAd after 3 days at 30 °C, by streaking or spotting; 5 mM 3-AT added to −LWH for self-activating constructs

binding, binds:
mouse CHAF1A 397–911 (Gal4 AD fusion) (from UniProt Q9QWF0 397-911) (domain or fragment)
mouse MCRS1, full length (Gal4 AD fusion) (from UniProt Q99L90 1-462)
mouse PIH1D1 42–290 (Gal4 AD fusion) (from UniProt Q9CQJ2 42-290) (domain or fragment)
